Data source: PubChem BioAssay AID1159584 (Peter MacCallum Cancer Centre, 2016)
Test: 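Genes that CDH1-null MCF10A cells selectively depend on to survive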 (primary screen). Cells: human MCF10A breast epithelial cells, parental and CDH1-null. Reagents: siRNA against human genes. Measured: 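ATP luminescence (CellTiter-Glo) viability per line relative to mean mock wells over all plates, and the ratio of CDH1-null to parental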. Direction: CDH1-null / parental viability ratio: higher = CDH1-null cells survive relatively better than parental; CDH1-null viability vs mock: higher = more viable CDH1-null cells.
The deposit covers about 18,000 reagents; shown is an unselected part. Not all columns of the deposit are shown. Reagent sequences are not shown. Not given: the amount of reagent, the time to read-out.

RPS6KA4 (ribosomal protein S6 kinase A4) → CDH1-null / parental viability ratio: 0.63; CDH1-null viability vs mock (fraction of mock): 0.43
TRIM23 (tripartite motif containing 23) → CDH1-null / parental viability ratio: 0.75; CDH1-null viability vs mock (fraction of mock): 0.68
SUOX (sulfite oxidase) → CDH1-null / parental viability ratio: 1.12; CDH1-null viability vs mock (fraction of mock): 0.36
CNOT11 (CCR4-NOT transcription complex subunit 11) → CDH1-null / parental viability ratio: 1.12; CDH1-null viability vs mock (fraction of mock): 0.9
LPA (lipoprotein(a)) → CDH1-null / parental viability ratio: 1.15; CDH1-null viability vs mock (fraction of mock): 0.84
PKIA (cAMP-dependent protein kinase inhibitor alpha) → CDH1-null / parental viability ratio: 1.15; CDH1-null viability vs mock (fraction of mock): 0.46
ATP1A3 (ATPase Na+/K+ transporting subunit alpha 3) → CDH1-null / parental viability ratio: 1.22; CDH1-null viability vs mock (fraction of mock): 0.96
NUDCD1 (NudC domain containing 1) → CDH1-null / parental viability ratio: 1.08; CDH1-null viability vs mock (fraction of mock): 0.78
SCUBE1 (signal peptide, CUB domain and EGF like domain containing 1) → CDH1-null / parental viability ratio: 1.12; CDH1-null viability vs mock (fraction of mock): 0.92
TAF2 (TATA-box binding protein associated factor 2) → CDH1-null / parental viability ratio: 0.96; CDH1-null viability vs mock (fraction of mock): 0.77
CFHR4 (complement factor H related 4) → CDH1-null / parental viability ratio: 1.06; CDH1-null viability vs mock (fraction of mock): 1.01
SPRTN (SprT-like N-terminal domain) → CDH1-null / parental viability ratio: 1.38; CDH1-null viability vs mock (fraction of mock): 0.88
MUC21 (mucin 21, cell surface associated) → CDH1-null / parental viability ratio: 1.14; CDH1-null viability vs mock (fraction of mock): 0.64
NECAB1 (N-terminal EF-hand calcium binding protein 1) → CDH1-null / parental viability ratio: 1.31; CDH1-null viability vs mock (fraction of mock): 0.89
ZNF567 (zinc finger protein 567) → CDH1-null / parental viability ratio: 1; CDH1-null viability vs mock (fraction of mock): 0.57
ZNF704 (zinc finger protein 704) → CDH1-null / parental viability ratio: 0.76; CDH1-null viability vs mock (fraction of mock): 0.54
SLC38A11 → CDH1-null / parental viability ratio: 1.02; CDH1-null viability vs mock (fraction of mock): 0.51
MMP26 (matrix metallopeptidase 26) → CDH1-null / parental viability ratio: 1.15; CDH1-null viability vs mock (fraction of mock): 0.86
SUCLG1 (succinate-CoA ligase GDP/ADP-forming subunit alpha) → CDH1-null / parental viability ratio: 0.95; CDH1-null viability vs mock (fraction of mock): 0.79
MYORG (myogenesis regulating glycosidase) → CDH1-null / parental viability ratio: 1.15; CDH1-null viability vs mock (fraction of mock): 0.92
DGKZ (diacylglycerol kinase zeta) → CDH1-null / parental viability ratio: 1.1; CDH1-null viability vs mock (fraction of mock): 0.78
KCNK3 (potassium two pore domain channel subfamily K member 3) → CDH1-null / parental viability ratio: 1.21; CDH1-null viability vs mock (fraction of mock): 0.99
TRAF3IP2 (TRAF3 interacting protein 2) → CDH1-null / parental viability ratio: 1.17; CDH1-null viability vs mock (fraction of mock): 0.75
NSL1 (NSL1 component of MIS12 kinetochore complex) → CDH1-null / parental viability ratio: 0.93; CDH1-null viability vs mock (fraction of mock): 0.78

3 entries from above, showing only “CDH1-null viability vs mock (fraction of mock)”.
LPA (lipoprotein(a)) = 0.84
PKIA (cAMP-dependent protein kinase inhibitor alpha) = 0.46
ATP1A3 (ATPase Na+/K+ transporting subunit alpha 3) = 0.96
